This is one part of the list.
target: OsWRKY34 (Oryza sativa, UniProt Q0JBA9 1-250); assay: protein-binding microarray (RPBM); PBS, 2% BSA, 51.3 ng/ul salmon testes DNA, 50 uM zinc acetate, 200 nM TF, 25 C, 1 h; high values mean tight binding; conditions: protein: recombinant; tags: N-terminal polyhistidine and DsRed monomer fusion (pET32a); label: CyDye5-dUTP incorporated in the synthesized complementary strand; 3' TTTTT single-stranded linker to array surface; dsDNA, one strand shown
How it was run: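 An Axon 4000B scanner gave the binding signal as per-feature fluorescence intensity in arbitrary units. This followed washing of a custom Agilent array that had been incubated for 1 h at 25 °C with 200 nM protein in PBS, 2% BSA, salmon testes DNA and 50 µM zinc acetate. The proteins were transcription factors fused at the N-terminus to polyhistidine and DsRed, expressed in E. coli BL21-CodonPlus and purified on Ni–NTA.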

Protein sequences, listed by entry. Tags and fused reporters are not part of them.
UniProt Q0JBA9, entry or part of it: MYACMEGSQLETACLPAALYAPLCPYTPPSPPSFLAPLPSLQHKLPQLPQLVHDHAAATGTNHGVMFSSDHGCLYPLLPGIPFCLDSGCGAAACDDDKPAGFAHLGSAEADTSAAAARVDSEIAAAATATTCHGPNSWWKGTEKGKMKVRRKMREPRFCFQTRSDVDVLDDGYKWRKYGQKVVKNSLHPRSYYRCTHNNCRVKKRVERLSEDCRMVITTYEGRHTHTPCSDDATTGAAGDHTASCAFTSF

| Sequence | binding signal |
| --- | --- |
| GTATTTATTTTGGCGGAGTGGTTATTTATCTTCCATTTCACGGAGTCACCTAGTGCAG | 9430 fluorescence intensity (a.u.) |
| GAGACAAGCGGGTCGCCTTTTAAGTACGTTTTGACCGCTTCGGAGTCACCTAGTGCAG | 8030 fluorescence intensity (a.u.) |
| TAATACTACTATCTTCTGTTAGGCTTTCACATTTAACTATCGGAGTCACCTAGTGCAG | 10300 fluorescence intensity (a.u.) |
| CTCCTACCGCCTCGTCTTCCACGAGTGCCACCGCGACCTCCGGAGTCACCTAGTGCAG | 8640 fluorescence intensity (a.u.) |
| TATTTGATCTGTTCATGTTTTACTGCTTAGTTTGTGTAGACGGAGTCACCTAGTGCAG | 11700 fluorescence intensity (a.u.) |
| TCTGTATTCATCATTTCCGCGATTCCACCCTCTCTCTCTCCGGAGTCACCTAGTGCAG | 8350 fluorescence intensity (a.u.) |
| CCGGCCAACTTTTTTTTTCCAGTGAATTGCATGCATGTAACGGAGTCACCTAGTGCAG | 8100 fluorescence intensity (a.u.) |
| GGAACCACCTCGACCTCTTCTTCTGGCTGCTCGCCGTGCTCGGAGTCACCTAGTGCAG | 9720 fluorescence intensity (a.u.) |
| TTTGTTTGGTTTAAATAGTTGAGGTAATTTAGGGGTTTAGCGGAGTCACCTAGTGCAG | 9020 fluorescence intensity (a.u.) |
| AAAGCCGATAGATATATGTATTACCTTTCCTTTGTTGCACCGGAGTCACCTAGTGCAG | 8820 fluorescence intensity (a.u.) |
| TTGGCGAGCGAGCTGTGTGGTGGTGGTGGTGGGTGAGTGGCGGAGTCACCTAGTGCAG | 13600 fluorescence intensity (a.u.) |
| CACCGCCACCTACTCGCCACTCTTTTACTCGGCGCGCCTTCGGAGTCACCTAGTGCAG | 13900 fluorescence intensity (a.u.) |
| AGGCTCAAATCCTCCAGTACCCATCCACCTGACGGCTTTCCGGAGTCACCTAGTGCAG | 8270 fluorescence intensity (a.u.) |
| TGCATGTGGAGTACTTTGTCCAGCTTTTCTAGCATGCCACCGGAGTCACCTAGTGCAG | 8320 fluorescence intensity (a.u.) |
| AATGATCATCATTTCATGTGTACTCGTATTATGGCACCCACGGAGTCACCTAGTGCAG | 8700 fluorescence intensity (a.u.) |
| GCACCTACAAGACCAACCTGCTCCAGCTCGCCAAAAACCTCGGAGTCACCTAGTGCAG | 9040 fluorescence intensity (a.u.) |
| AAAAGCATCGTCCCATCGTCTTCACACATTTTACTACGAGCGGAGTCACCTAGTGCAG | 8970 fluorescence intensity (a.u.) |
| GTAATTGGGCTTTCTTTGGGTAGTTATCGCTGGGCTTAATCGGAGTCACCTAGTGCAG | 9250 fluorescence intensity (a.u.) |
| ATTATGTTAGGGTATTCATAGAGTTGTTTTTTTTTTTGATCGGAGTCACCTAGTGCAG | 12600 fluorescence intensity (a.u.) |
| AAATTGTTGCATATTCTGTAGTCCTTTTTTTTAATGAGATCGGAGTCACCTAGTGCAG | 8210 fluorescence intensity (a.u.) |
| ATTCTTGTTTTTCTTTTTTTTTTTATTGTCCAATTGGATTCGGAGTCACCTAGTGCAG | 10100 fluorescence intensity (a.u.) |

Part of the list above in a different format:
Sequence,binding signal
GAGACAAGCGGGTCGCCTTTTAAGTACGTTTTGACCGCTTCGGAGTCACCTAGTGCAG,8030 fluorescence intensity (a.u.)
TATTTGATCTGTTCATGTTTTACTGCTTAGTTTGTGTAGACGGAGTCACCTAGTGCAG,11700 fluorescence intensity (a.u.)
TTTGTTTGGTTTAAATAGTTGAGGTAATTTAGGGGTTTAGCGGAGTCACCTAGTGCAG,9020 fluorescence intensity (a.u.)

Later entries.

| Sequence | binding signal |
| --- | --- |
| CTTGCTCGCTCGCGCGCCGTCTCTGCCGCGATCTCTCTCTCGGAGTCACCTAGTGCAG | 11400 fluorescence intensity (a.u.) |
| CAAATGTTGTTCTTGCCATTTTCCTGTTTGAAGTTTTCCACGGAGTCACCTAGTGCAG | 12000 fluorescence intensity (a.u.) |
| ACCAGTCACAGACCGGTCATTCTTGTCCACCACGCGTCAGCGGAGTCACCTAGTGCAG | 9340 fluorescence intensity (a.u.) |
| TTTGTTGGTGTTATGTTGACTTTTTTTTGGGAACATTACTCGGAGTCACCTAGTGCAG | 17400 fluorescence intensity (a.u.) |
| GTATAGTCCAATTCTCGTGCAGCTTCCACAAACCTCGCTTCGGAGTCACCTAGTGCAG | 11200 fluorescence intensity (a.u.) |
| GTGGGATATATAACTCGTTGCCATGCACACTATACCCTTACGGAGTCACCTAGTGCAG | 8380 fluorescence intensity (a.u.) |
| GTTTTATGGCCATCGGTGTAGCTTGTATGCATATATCTTTCGGAGTCACCTAGTGCAG | 12900 fluorescence intensity (a.u.) |
| GCCGCTCCCTGCCTCCGCGTGTCGTCGTCGCCCAGCTGCACGGAGTCACCTAGTGCAG | 9050 fluorescence intensity (a.u.) |
| AGATTTGTGCTCTGACCCACTTCACTCACTTAGTCTCTAGCGGAGTCACCTAGTGCAG | 8680 fluorescence intensity (a.u.) |
| TCTTGTCGCATTTGGAATAGTCGTCGTTGGTTTCTTGCCGCGGAGTCACCTAGTGCAG | 8820 fluorescence intensity (a.u.) |
| TCTCGTGTTCCTCTTCACTACCACTTCTAGAAGCTTCCTCCGGAGTCACCTAGTGCAG | 8020 fluorescence intensity (a.u.) |
| CCATGTCGGAGGTGGTGCGGATGCTGGAAGGGGAAGGACTCGGAGTCACCTAGTGCAG | 8630 fluorescence intensity (a.u.) |
| GATTGACTTGCCAAACATTTTACATGCGTTTATTGTACCACGGAGTCACCTAGTGCAG | 9920 fluorescence intensity (a.u.) |
| CACCCCAGCCGCCTTCGCTTTACACATGCAACTAACAAACCGGAGTCACCTAGTGCAG | 8060 fluorescence intensity (a.u.) |
| GAAAAATGATCTGTCTCCTCTTTGCATTTTTGTGGTGATGCGGAGTCACCTAGTGCAG | 8680 fluorescence intensity (a.u.) |
| CCTCGTTGTCGTTGTCGTCGTCTTCCTTTGACTCCCCTTACGGAGTCACCTAGTGCAG | 14600 fluorescence intensity (a.u.) |
| CAGATTTCTGTGTCCCCGGTCCCGTCAAAATACCCCAGTACGGAGTCACCTAGTGCAG | 8390 fluorescence intensity (a.u.) |
| GGTACGTCTCTCTCGCACTCTCGTGTCCTCTCGACAGGACCGGAGTCACCTAGTGCAG | 9140 fluorescence intensity (a.u.) |
| CACATACATCCATCCATCCATCCTTTGATTTTTCATCTCCCGGAGTCACCTAGTGCAG | 9480 fluorescence intensity (a.u.) |
| GAGCTACTATACCTTTTGATTACAGCAAACTTACCATTCCCGGAGTCACCTAGTGCAG | 8170 fluorescence intensity (a.u.) |
| CCGCCGCCGCCGCCGCCGCCGCCGCAGTGACCACCTCGCTCGGAGTCACCTAGTGCAG | 8780 fluorescence intensity (a.u.) |
